Source: patent publication US20240166742A1, “MOLECULES THAT BIND TO AND STABILIZE TRIGGERING RECEPTOR EXPRESSED ON MYELOID CELLS 2 (TREM2)” (Novartis AG, priority 2015, published 2024)

Amino acid sequences for entries named in this document (tags omitted). Residues count along the entry.
UniProt Q9NZC2, 19-230: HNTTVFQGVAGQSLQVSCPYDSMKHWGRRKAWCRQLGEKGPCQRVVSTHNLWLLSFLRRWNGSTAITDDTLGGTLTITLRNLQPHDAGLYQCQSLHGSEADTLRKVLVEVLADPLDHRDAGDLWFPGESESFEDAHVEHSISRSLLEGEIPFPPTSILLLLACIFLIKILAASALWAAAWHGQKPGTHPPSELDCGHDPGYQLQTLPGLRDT

How the values were obtained:
[1] = target: TREM2 (triggering receptor expressed on myeloid cells 2), co-expressed with human DAP12 on CHO cells (Homo sapiens) (UniProt Q9NZC2); assay: activity in cells; details: all dT (printed P) are NapdU, protein on the cell surface, single-stranded DNA, dose not given here
[2] = target: TREM2 on primary M2a macrophages (Homo sapiens) (UniProt Q9NZC2); assay: activity in cells; details: all dT (printed P) are NapdU; stabilized cell surface TREM2 on primary human M2a macrophages, 37 C 3 h; protein on the cell surface; single-stranded DNA; dose not given here
IgG1 (Homo sapiens) = assay: binding assay; details: all dT (printed P) are NapdU; specificity control, group statement, data not shown; purified recombinant protein; label: biotin (cell binding assay); single-stranded DNA
[3] = target: TREM2 (triggering receptor expressed on myeloid cells 2), co-expressed with human DAP12 on CHO cells (Homo sapiens) (UniProt Q9NZC2); assay: flow cytometry; details: all dT (printed P) are NapdU, protein on the cell surface, single-stranded DNA
[4] = CHO-hTREM2/hDAP12 cells, medium with 10% FBS, on ice, label: biotin (cell binding assay)

Row | Sequence | functional effect of the aptamer ([1]; stabilized cell surface TREM2 on CHO-hTREM2, 37 C 3 h) | functional effect of the aptamer [2] | binding result (IgG1 (Homo sapiens)) | binding result [3, 4] | binding result ([3]; control SOMAmer did not bind cell surface human TREM2) | functional effect of the aptamer ([1]; increased/stabilized cell surface TREM2 on CHO-hTREM2, 37 C 3 h)
1 | CCCTCTGTCAACCTCCACACAGGCCTTTGATGCAAGTATACAGTGGAAGA [KX86-94WC] | active | active | no binding | binds | – | –
2 | CCCTCCCTATCGCAATGACACATTGGGGTCTCGAGGTGCGCGATCGAAGA [EX83-95HC (control)] | – | – | – | – | no binding | –
3 | CCCTCGATCCGGTGGCGGATCCTAAGTATTGGCCCGGTCCGCCAAGAAGA [UX85-90BC (also printed UX95-90BC)] | – | – | no binding | binds | – | active

For some assays here: Where cells or extracts were used, other partners may take part. For some assays here: A negative result means that nothing was seen under these conditions. For some assays here: Construct, isoform or probe ends are uncertain for at least one entry.
